The campaign covered roughly 52,000 sequences. About 210 (0.4%) were called active.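 How the source made its calls: active means gene whose silencing raises cell survival under the drug, median off-target-corrected z-score across its silencing RNAs 2 or more; inactive means the rest.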 The list shows a part of the results.
test: Resistance to Poly (ADP-Ribose) Polymerase inhibitor: Gene Identification via Genome-wide siRNA Screen; conditions: mouse BRCA2 R2336H ES cells, olaparib, CellTiter-Glo viability; stronger effect = higher value
In short: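 Mouse BRCA2 R2336H ES cells were reverse-transfected with siRNA (20 nM final), treated at 48 h with 500 nM olaparib, and read by CellTiter-Glo after 72 h. Scores: MAD-based z per siRNA, median per gene, seed off-target correction.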

| Sequence | z-score |
| --- | --- |
| GGGUGAAAUCACCUCUCAGTT against Scn2b | inactive: 1.78 |
| GGUCACCACACGAUCUACATT against Slc4a4 | inactive: 0.158 |
| CCAAUAGUGCUGAUAAUGUTT against BC021790 | inactive: -0.455 |
| GCCUGUGGAAACUUUCCUGTT against 2310003H01Rik | inactive: 0.362 |
| GGGAGUGCGGAUUUCUUGUTT against Col9a2 | inactive: -0.358 |
| GCGAGGGAUAAUUUAUAGATT against Prkci | inactive: 0.204 |
| GCAUUUAUAUGAGAUGCAGTT against 4933403F05Rik | inactive: 0.19 |
| CCAACAAUCCGUAUCGACCTT against 4930425N13Rik | inactive: -0.139 |
| GAGCAAUAAGCUAGGGUGATT against Olfr1428 | inactive: -0.146 |
| GCAUCAUCAGCUGGUUCGUTT against Agpat2 | inactive: 0.718 |
| GGCAUUGCAUUUGAGGAUCTT against Slc35f5 | inactive: 0.802 |
| GCUUCGUGAGCAAAUCCUATT against 6330407D12Rik | inactive: 0.656 |
| GGAUUUAAAUCACCUGUAATT against Tdpoz1 | inactive: 0.277 |
| GGAUGCAGAAACGCACGGUTT against Ltb4r1 | inactive: 0.72 |
| GAUCACAGUCACGAUAUAATT against Prss19 | inactive: -1.28 |
| GGUGCUAGACAGAGCUUACTT against Gdf10 | inactive: 2.39 |
| GCAUCAGAGAUAUUAUUUGTT against Ube2a | inactive: 0.862 |
| CCACAAUCAUUAACAAGCUTT against Arl6 | inactive: 0.364 |
| CCAUGGACCAAGAUCCAGATT against AA408556 | inactive: -1.41 |
| GGAGGAGUUAAAUAUGAUCTT against Cnnm4 | inactive: -0.351 |
| GGACUUUUUCUAGAAACGATT against Fbxo16 | inactive: -0.987 |
| GGAACAUGAAAACACGAAUTT against 4933425I22Rik | inactive: 0.352 |

| Sequence | z-score |
| --- | --- |
| GGAUCAUGAACUCUUAGAATT against 4930429M06Rik | inactive: 0.0128 |
| GGAAUUUGUCAUUCAGGAATT against Rad1 | inactive: 0.984 |
| GGCCAAUGCACUGUGUUACTT against Tinag | inactive: -0.819 |
| CCUCCACUAUACGGUAAGUTT against Pla2g2c | inactive: -1.62 |
| GGCACAAGGAACCUACGUUTT against Perp | inactive: 0.752 |
| GCCUUGUUGUGUUGGCUUATT against Olfr1111 | inactive: -0.77 |
| GGUUAGCCAGCUGAAUCAATT against Cxxc4 | inactive: -1.18 |
| UCACAGAAGGCUGUAUCCUTT against Olfr244 | inactive: -1.52 |
| CCAUCUUACGAUUGCCUUCTT against Olfr362 | inactive: -1.65 |
| GGAAUGUUCCUUCGAGCAGTT against 1810010N17Rik | inactive: 2.05 |
| GCUGAUCAAACAGAUUAUCTT against Fbxl3a | inactive: 1.29 |
| GGAAGCUGAGAUUUAUUUUTT against Trpc4 | inactive: 0.919 |
| GGACUGCUACAAAGAACAATT against C2b | inactive: -0.596 |
| GGAAAAGUUCCAUCUAGUATT against Pole | inactive: -1.1 |
| CCCUUUCCUAUUUGUUAUGTT against Serpinb3d | inactive: 0.361 |
| GGCACCAAGUUUGACACGCTT against Zap70 | inactive: 0.842 |
| GGAGAACAUCGUUUCCAGCTT against Nlgn1 | inactive: 0.637 |
| CGAUGUUACUAUAGGAUCUTT against A730036I17Rik | inactive: 0.408 |
| GGAAAUGUACAAGACUGAUTT against Anxa2 | inactive: -0.106 |
| GGAGUUCUUCUUCAAUGAGTT against Kcnd3 | inactive: 0.841 |
| CCCACAAAACAUGACCGCCTT against Sirt6 | inactive: 0.846 |
| CCUCGACUCAUUCAGCUUGTT against Ogg1 | inactive: -0.0753 |

| Sequence | z-score |
| --- | --- |
| CCUUAAAACUUUCUGGUUGTT against 6330407G11Rik | inactive: 0.0707 |
| GGCUAUCCCUGUUGUGUCUTT against Kit | inactive: 0.065 |
| GGAUAACAUGAUCUCUACUTT against 1200014P03Rik | inactive: 0.71 |
| GCAAUCUGUUUAGAGAGAGTT against Gm405 | inactive: 0.119 |
| GGAGCUGACAGACAUAGACTT against Ctnnbl1 | inactive: -0.457 |
| GCAUAUACCACCAAUGAGATT against 4933439F18Rik | inactive: -0.199 |
| UAAGGCCAUCUAGUGGAGATT against 1700013L23Rik | inactive: 0.986 |
| GCAGGAUUGCAUAUAUCGGTT against Cspg5 | inactive: 0.536 |
| GGCGUGAAUGAAUUUGGAATT against Adam22 | inactive: -0.00882 |
| GGUUUCUUGGACAGAAGUGTT against E330028A19Rik | inactive: -0.82 |
| GGAAGAAUAUGCCAGAAUGTT against Stra8 | inactive: -0.179 |
| GCCCGUCGGAAAGAAGAAATT against 2310002B06Rik | inactive: -1.12 |
| GCCUCUGUAUGUCAUAUUGTT against LOC545471 | inactive: 0.213 |
| GGUUUUAAGCUUGCUUAUGTT against 1110017I16Rik | inactive: -0.351 |
| GGCAAAAUUAUGAAUGGCCTT against Rfk | inactive: 0.826 |
| GGCAAACCUGAAGAAGUUCTT against Shank3 | inactive: -0.217 |
| GGAGAAGCUGGCAAAUAUGTT against Mbl1 | inactive: 0.891 |
| GCUUAUUCCCAUAAAUAGATT against 4933425K02Rik | inactive: 1.81 |
| GGAGAUAGACAUGCCUUUCTT against 1700024C24Rik | inactive: -0.00276 |
| GGUUUUCUUAGAUACUUUGTT against Fzd6 | inactive: -0.174 |
| CGAUCACCAUGAUGAAUUCTT against Ngfrap1 | inactive: 1.13 |
| GGGUGUUUGCUCAGAGAUGTT against Tmem7 | inactive: 0.923 |

Fetched one by one from the entries so far (four):

| Sequence | z-score |
| --- | --- |
| GGGUGUUUGCUCAGAGAUGTT against Tmem7 | inactive: 0.923 |
| GCAUAUACCACCAAUGAGATT against 4933439F18Rik | inactive: -0.199 |
| GGUUUUCUUAGAUACUUUGTT against Fzd6 | inactive: -0.174 |
| GGAGCUGACAGACAUAGACTT against Ctnnbl1 | inactive: -0.457 |

Source: PubChem BioAssay AID1347423 (Functional Genomics Laboratory (NCATS/FGL), 2020)
